The list shows a part of the results, in another mix than the full data. For part of these data: At the low end of the ranking the order means little.

One experiment has as its target T1, ELK1 (UniProt P19419).
T1 sequence: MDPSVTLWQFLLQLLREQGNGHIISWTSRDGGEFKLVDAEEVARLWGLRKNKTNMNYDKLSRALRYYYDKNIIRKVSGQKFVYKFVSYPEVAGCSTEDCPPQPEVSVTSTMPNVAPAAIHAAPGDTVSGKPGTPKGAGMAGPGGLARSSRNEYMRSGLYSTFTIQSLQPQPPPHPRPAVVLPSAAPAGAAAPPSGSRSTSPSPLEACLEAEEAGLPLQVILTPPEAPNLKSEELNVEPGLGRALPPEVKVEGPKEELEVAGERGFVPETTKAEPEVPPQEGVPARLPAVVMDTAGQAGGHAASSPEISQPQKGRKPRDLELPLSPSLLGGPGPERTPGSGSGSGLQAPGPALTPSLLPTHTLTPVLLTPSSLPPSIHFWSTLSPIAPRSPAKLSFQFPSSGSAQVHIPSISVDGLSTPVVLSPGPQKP
The experiment is described as follows: DAPPL (digital affinity profiling via proximity ligation, sequencing). The following applies: 10 mM Tris-HCl pH 7.5, 50 mM NaCl, 1 mM DTT, 4% glycerol, room temperature, 30 min; GST-TFs on glutathione beads, 16-mer random dsDNA library, 0.1% …; high values mean tight binding; double strand, one strand shown; scale: fold enrichment (6-mer frequency, TF over GST control).
As for CTGGAA, the binding signal was 1.25.

On to GTTCTC, for which the binding signal worked out at 1.18.

Take ATACTT: the binding signal came out at 1.6.

A further experiment concerns the target T2, SPIC (UniProt Q8N5J4).
T2 sequence: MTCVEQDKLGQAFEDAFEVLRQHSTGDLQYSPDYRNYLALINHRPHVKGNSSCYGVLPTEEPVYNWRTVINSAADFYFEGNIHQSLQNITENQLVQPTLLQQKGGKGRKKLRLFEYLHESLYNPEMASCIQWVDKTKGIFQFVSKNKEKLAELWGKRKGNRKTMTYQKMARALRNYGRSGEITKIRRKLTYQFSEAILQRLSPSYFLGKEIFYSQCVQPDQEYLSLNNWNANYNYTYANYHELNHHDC
The experiment is described as above. The following applies: 10 mM Tris-HCl pH 7.5, 50 mM NaCl, 1 mM DTT, 4% glycerol, room temperature, 30 min; GST-TFs on glutathione beads, 16-mer random dsDNA library, 0.1% …; high values mean tight binding; double strand, one strand shown; scale: fold enrichment (6-mer frequency, TF over GST control).
For GTAGCT, the binding signal came to 0.961.

Turning to ACTTGC, the binding signal was determined as 1.36.

The sequence TAGCAA registered a binding signal of 1.14.

As to TGTTTA, the binding signal was 1.05.

Take TTAGCT: the binding signal is 1.16.

TCAAAG yielded a binding signal of 0.955.

TCAAAC: the binding signal was found to be 1.19.

Regarding CTGGTA, the binding signal came out at 1.28.

As for AATCTG, the binding signal is 1.52.

In the case of AATCTT, the binding signal turned out to be 1.38.

With TATACA, the binding signal is 1.28.

As for AGGAAC, the binding signal is 1.23.

Regarding CTGGAA, the binding signal is 1.2.

Take ACAACT: the binding signal came out at 1.39.

For AACCTG, the binding signal was determined as 1.04.

Sequence TATGTC came in with a binding signal of 0.966.

The sequence TAATTC came in with a binding signal of 1.44.

The sequence ACACGC showed a binding signal of 0.994.

With AAGCGC, the binding signal is 1.14.

TTGCAG gave a binding signal of 1.05.

TAACCA: the binding signal was determined as 0.943.

TGGAAT displayed a binding signal of 1.22.

Take CACTCA: the binding signal amounted to 1.3.

Turning to TTGCTT, the binding signal was 1.38.

In turn, GTTCTC came in with a binding signal of 1.36.

For GCCCAC, the binding signal worked out at 1.13.

On to TGACAA, for which the binding signal is 1.11.

CACCTT registered a binding signal of 1.2.

In turn, GGCATT came in with a binding signal of 0.992.

In turn, TACCTA displayed a binding signal of 1.19.

CTGTAC: the binding signal was 1.41.

With CACCAC, the binding signal is 1.3.

GTTATG showed a binding signal of 1.23.

Regarding TAATAC, the binding signal came to 1.12.

GGTTTG: the binding signal is 1.27.

As to AATTTC, the binding signal is 1.59.

Sequence GCGTCC had a binding signal of 1.23.

Consider ATACTT, for which the binding signal was 1.58.

Sequence TACCCC returned a binding signal of 0.95.

These data come from PMC7862700.
